Data as given in patent US20230174596A1 (published 2023).
These are yes or no findings as the source states them, for the method shown. Some binding calls cover weakened binding; strength is not graded here.

T1: human VEGF-A (human, UniProt P15692-4 34-135, limits assumed)
T1 sequence (looked up): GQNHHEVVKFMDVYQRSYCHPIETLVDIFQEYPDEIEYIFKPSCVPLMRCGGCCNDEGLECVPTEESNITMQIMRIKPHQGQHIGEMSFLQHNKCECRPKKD

T2: hVEGF-A (8-109) (human, UniProt P15692 214-315)
T2 construct: residue numbers count on mature VEGF-A; dimer
T2 sequence (looked up): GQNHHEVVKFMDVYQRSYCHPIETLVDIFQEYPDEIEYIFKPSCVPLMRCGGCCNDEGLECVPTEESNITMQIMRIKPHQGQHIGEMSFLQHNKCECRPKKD

T3: rat VEGF-A (rat, UniProt P16612-2 27-190, limits assumed)
T3 sequence (looked up): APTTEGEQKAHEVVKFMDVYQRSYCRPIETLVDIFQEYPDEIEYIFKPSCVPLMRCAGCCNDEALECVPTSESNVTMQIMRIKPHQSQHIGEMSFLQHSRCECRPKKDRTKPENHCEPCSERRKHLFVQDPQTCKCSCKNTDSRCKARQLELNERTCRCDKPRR


What was measured:
[1] = biological target: T1, human VEGF-A; assay: phage competition ELISA, soluble peptide
[2] = biological target: T2, hVEGF-A (8-109); assay: spot phage ELISA
[3] = biological target: T2, hVEGF-A (8-109); assay: phage competition ELISA
[4] = biological target: T3, rat VEGF-A; assay: SPR
[5] = biological target: T1, human VEGF-A; assay: SPR
[6] = biological target: T1, human VEGF-A; assay: co-crystal structure

Binder | binding [1] | binding [4] | binding [5] | other results
GCQDPTFNWALYCKQDSDCLAGCVCQMYQSCG (designed binder) [VEGF_CKP7] | binds | – | – | –
GCDVMQPYWGCEMDFDCLAGCVCHWYNSCGVN (designed binder) [9.63.44-14 (SEQ ID NO: 514)] | – | – | – | binding [2]: binds
GCDVMQPYWGCEMDFDCLAGCICHWYNSCGWK (designed binder) [9.63.44-14 (SEQ ID NO: 532)] | – | – | – | binding [2]: binds; binding [3]: binds
GCNIMLPFWGCGRDFECLAGCVCQYYQSCG (designed binder) [VEGF_CKP9.54.90] | – | binds | binds | binding [6]: binds
GCNIMLPFWGCKQDSDCLAGCVCQYYQSCG (designed binder, also called EM54) [VEGF_CKP9.54] | – | binds | binds | binding [6]: binds
GCRDLDVKWDCKQDSDCLAGCFCQYYSSCG (designed binder) [VEGF_CKP10] | binds | – | – | –
GCPTTRFKQYCKQDSDCLAGCVCGPNGFCG (designed binder) [VEGF_CKP6] | binds | – | – | –
GCDVMQPYWGCKQDSDCLAGCVCHWYNSCG (designed binder, also called EM63) [VEGF_CKP9.63] | – | binds | binds | binding [6]: binds
GCQLMQPFWGCKQDSDCLAGCVCHWYQSCG (designed binder) [VEGF_CKP9] | binds | – | – | –
GCDVMQPYWGCGPDIDCLAGCVCHWYNSCG (designed binder, also called L2.9.63.12) [VEGF_CKP9.63.12] | – | binds | binds | –
GCRTPWEPHDITCKQDSDCLAGCVCGPNGFCG (designed binder) [VEGF_CKP11] | binds | – | – | –
GCTTPWPPHEIMCKQDSDCLAGCVCGPNGFCG (designed binder) [VEGF_CKP12] | binds | – | – | –
GCVTPWKPHWINCKQDSDCLAGCVCGPNGFCG (designed binder) [VEGF_CKP13] | binds | – | – | –
